These are yes or no findings as the source states them, for the method shown. In cells and extracts the contact can be indirect. Binding calls can cover weak binding; strength is not graded here.
Target: T1, nuclear factor erythroid 2-related factor 2 (NRF2), endogenous (human (endogenous in MDA-MB-231, HCT116, MCF7)) (UniProt Q16236)
T1 sequence: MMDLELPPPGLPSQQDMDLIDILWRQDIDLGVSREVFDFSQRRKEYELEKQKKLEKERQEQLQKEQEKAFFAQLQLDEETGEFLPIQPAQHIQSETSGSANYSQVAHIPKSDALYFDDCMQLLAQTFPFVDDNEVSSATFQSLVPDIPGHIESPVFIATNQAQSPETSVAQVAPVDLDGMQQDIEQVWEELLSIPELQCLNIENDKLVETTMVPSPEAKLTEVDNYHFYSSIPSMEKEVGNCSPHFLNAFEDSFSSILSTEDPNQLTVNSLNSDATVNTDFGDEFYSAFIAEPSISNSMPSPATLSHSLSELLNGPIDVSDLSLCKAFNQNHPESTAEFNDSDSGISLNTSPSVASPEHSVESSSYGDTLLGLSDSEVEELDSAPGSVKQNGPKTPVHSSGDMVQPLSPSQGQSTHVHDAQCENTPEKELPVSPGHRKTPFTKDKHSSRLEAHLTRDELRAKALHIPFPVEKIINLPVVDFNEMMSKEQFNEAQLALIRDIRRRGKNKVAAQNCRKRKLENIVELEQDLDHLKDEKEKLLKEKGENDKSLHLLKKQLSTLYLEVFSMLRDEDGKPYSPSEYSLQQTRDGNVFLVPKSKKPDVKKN
Experiment: co-IP

Substance: HSP40, endogenous (human (endogenous in MDA-MB-231, MCF7))
- binding: binds weakly

— paper doi:10.1101/2023.10.26.564194 (bioRxiv, 2023)
